Results: PubChem BioAssay AID720504 (National Center for Advancing Translational Sciences (NCATS), 2013)
The campaign covered roughly 360,000 compounds. About 10,000 (2.8%) were called active. The inconclusive results got no clear call from the source; some entries with a clear call stand among them for comparison. The call rests on the fitted dose curve; in most records, active means well fitted inhibition curve with a large enough effect; inconclusive means small, poorly fitted or top-dose-only effect; inactive means flat fitted curve, though single readings scatter. Potencies of inconclusive entries are doubtful fits and often do not repeat.

Chains of the proteins cited; added tags and fusions are not shown.
UniProt P53350, whole entry, looked up: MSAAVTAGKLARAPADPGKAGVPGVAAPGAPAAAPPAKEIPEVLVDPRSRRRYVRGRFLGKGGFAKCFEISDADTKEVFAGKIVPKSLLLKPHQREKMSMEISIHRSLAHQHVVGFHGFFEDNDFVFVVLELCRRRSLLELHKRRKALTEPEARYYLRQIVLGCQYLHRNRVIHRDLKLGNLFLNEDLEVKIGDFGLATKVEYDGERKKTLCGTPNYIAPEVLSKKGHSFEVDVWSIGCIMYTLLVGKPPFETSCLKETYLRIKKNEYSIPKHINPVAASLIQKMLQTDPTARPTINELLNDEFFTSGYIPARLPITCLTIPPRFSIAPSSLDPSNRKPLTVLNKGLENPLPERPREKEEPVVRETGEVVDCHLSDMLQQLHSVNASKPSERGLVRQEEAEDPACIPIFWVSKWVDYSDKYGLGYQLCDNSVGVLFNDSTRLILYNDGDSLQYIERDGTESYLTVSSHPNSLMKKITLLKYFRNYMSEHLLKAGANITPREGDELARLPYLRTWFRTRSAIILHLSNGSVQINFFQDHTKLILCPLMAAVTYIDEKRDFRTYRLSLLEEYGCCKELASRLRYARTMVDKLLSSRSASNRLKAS

molecular target: Serine/threonine-protein kinase PLK1 (Homo sapiens) (UniProt P53350); experiment: qHTS for Inhibitors of PLK1-PDB (polo-like kinase 1 - polo-box domain): Primary Screen; conditions: Plk1 PBD binding of FITC phosphopeptide, fluorescence polarization; further: nearly all actives have a fitted effect of over 65% in size; on max response, negative = inhibition: series mostly up to about 57 µM
On the % scale 0 is the no-effect control and ±100 the full control effect; potency means the concentration at half of the fitted maximal effect.

| Compound | max response, negative = inhibition | Potency |
| --- | --- | --- |
| CSc1nsc(SCC(=O)Nc2ccc(C(N)=O)cc2)n1 | inconclusive: -35.1% [inhibitor] |  |
| CCN(CC)S(=O)(=O)c1ccc(N2CCOCC2)c(NS(=O)(=O)c2ccc(C(C)C)cc2)c1 |  | inconclusive: 37.7 µM [inhibitor, single point] |
| CCOC(=O)c1[nH]c(C)c(C(=O)OCC(=O)N2CC(=O)Nc3ccccc32)c1C |  | inconclusive: 21.2 µM [inhibitor, single point] |
| O=[N+]([O-])c1cc(CSC2=NCCN2)ccc1O |  | inconclusive: 21.2 µM [inhibitor, partial curve] |
| Cc1cc(C)n2nc(CNS(=O)(=O)c3cccc([N+](=O)[O-])c3)nc2n1 | inactive: 3.31% |  |
| FC(F)(F)c1cccc(Oc2cc(C(F)(F)F)nc(-c3ccccn3)n2)c1 | inactive: -4.42% |  |
| CCOc1ccc(-c2nnc3sc(COc4ccc(C)cc4)nn23)cc1 |  | inconclusive: 29.9 µM [inhibitor, partial curve] |
| O=C(O)/C=C/C(=O)c1ccc2c(c1)NC(=O)CO2 |  | inconclusive: 18.9 µM [inhibitor, partial curve] |
| CC1(OC(=O)c2ccc(Cl)nc2)C(=O)C=C2C=C3CCCN3C=C2C1=O (configuration not stated) |  | inconclusive: 23.8 µM [inhibitor, partial curve] |
| CCOP(=O)(OCC)C(Nc1ccccc1)c1ccc2c(c1)OCO2 (configuration not stated) | inactive: 0.79% |  |
| COc1ccc(/C=N/n2cncn2)cc1COc1ccc(NC(C)=O)cc1 |  | active: 26.7 µM |
| CCOC(=O)C(C)Oc1cccc2c(=O)n(CC(=O)NCc3ccccc3)ccc12 (configuration not stated) | inactive: -4.21% |  |
| CC(=O)Nc1cc(OC(C)=O)c2nonc2c1OC(C)=O |  | inconclusive: 37.7 µM [inhibitor, single point] |
| COc1cc(/C=N/n2c(C)nc3ccccc3c2=O)ccc1O | inactive: 2.42% |  |
| Cc1ccc(OC(C)C(=O)Nc2ccccc2C(=O)N2CCOCC2)cc1 (configuration not stated) | inactive: -6.89% |  |
| CCO[C@@H]1OC(C(=O)NCc2ccccc2)=C[C@H](c2ccc3c(c2)OCO3)[C@H]1CCCO | inactive: -4.85% |  |
| CC(=O)N1CCc2c(sc(NC(=O)Cc3ccc(C)cc3C)c2C#N)C1 |  | active: 26.7 µM |
| O=C(COc1ccc(Cl)cc1)NNC(=O)c1ccccc1C(=O)O | inactive: 3.22% |  |
| O=S(=O)(c1ccc(Cl)cc1)N1CCC(c2nc3ccccc3[nH]2)CC1 | inactive: -5.31% |  |
| CS(=O)(=O)N1CCc2cc(C(=O)Nc3ccc(Cl)cc3)ccc21 | inconclusive: -18.6% [inhibitor] |  |
| COc1ccc(CNC(=O)/C(C#N)=C/c2cccc(OC)c2OC)cc1 | inactive: -17% |  |
| Cn1c(/N=C/c2ccccc2[N+](=O)[O-])nc2ccccc21 |  | inconclusive: 21.2 µM [inhibitor, single point] |
| c1ccc(SCc2nc(-c3ccccn3)no2)cc1 |  | inconclusive: 26.7 µM [inhibitor, partial curve] |
| C[C@@H]1CN([C@@H](C)CO)C(=O)c2cc(Br)cnc2O[C@H]1CN(C)Cc1ccccc1C(=O)O | inactive: -16% |  |

| Compound | max response, negative = inhibition | Potency |
| --- | --- | --- |
| COc1c(Cl)cccc1-c1cn2ccc(C)cc2n1 | inactive: 0.247% |  |
| CCOC(=O)c1c(C)n(-c2ccc(C)cc2)c2c(C(C(C)=O)C(=O)O)c(Br)c(O)c(O)c12 (configuration not stated) |  | inconclusive: 29.9 µM [inhibitor, partial curve] |
| Cc1ccccc1OCCn1c(=S)[nH]c2c(N)ncnc21 | inactive: -24.3% |  |
| O=c1c2c3c(sc2n2cnnc2n1-c1ccccc1)N(Cc1ccccc1)CCC3 |  | active: 29.9 µM |
| CCCCNC(=O)Nc1c(C)cc(SC#N)cc1C |  | inconclusive: 10.6 µM [inhibitor, partial curve] |
| COc1ccc(CCC(=O)OCC(=O)c2ccc(C)cc2)cc1 |  | inconclusive: 8.44 µM [inhibitor, single point] |
| Cc1ccc2c(c1)-c1c(ssc1=S)C(C)(C)N2C(=O)c1ccco1 |  | active: 2.12 µM |
| COCCN1CCN(c2cc(-c3ccccc3)nc3cc(-c4cccc(F)c4)nn23)CC1 |  | inconclusive: 26.7 µM [inhibitor, single point] |
| Cc1cccc(NC(=O)CSCC(=O)N(CCC(C)C)c2c(N)n(Cc3ccccc3)c(=O)[nH]c2=O)c1 | inactive: 0.743% |  |
| CC(CC(=O)Nc1ccc(C(N)=O)cc1)c1ccccc1 (configuration not stated) |  | inconclusive: 29.9 µM [inhibitor, partial curve] |
| Cc1oc2cc(O)ccc2c(=O)c1Oc1ccccc1 |  | active: 2.99 µM |
| O=c1cc(-c2ccccc2Cl)oc2c(NS(=O)(=O)c3cccc4nsnc34)ccc(O)c12 | inconclusive: -32.6% [inhibitor] |  |
| CC1(C)Cc2c(sc3nnn(Cc4ccccc4)c(=O)c23)CO1 |  | inconclusive: 23.8 µM [inhibitor, partial curve] |
| COCCn1c(SCC(=O)OCc2ccccc2)nc2c1c(=O)[nH]c(=O)n2C |  | inconclusive: 26.7 µM [inhibitor, single point] |
| COc1cc([N+](=O)[O-])cc(/C=N/NC(=O)Cn2nccc2C)c1O |  | active: 26.7 µM |
| O=c1nccc(N/N=C/c2ccccc2O)[nH]1 |  | inconclusive: 23.8 µM [inhibitor, single point] |
| O=C(CSCc1ccccc1)NNC(=S)Nc1cccc(Cl)c1Cl |  | inconclusive: 29.9 µM [inhibitor, single point] |
| Cc1cccc(C)c1Nc1nnc(SCC(=O)NCCCN2CCCC2=O)s1 | inconclusive: -33.5% [inhibitor] |  |
| COc1ccc(OCc2ccc(-c3nc4ccccc4c(=O)n3N)o2)cc1 | inactive: 2.15% |  |
| O=c1c2c3c(sc2[nH]c(=S)n1Cc1ccco1)CCC3 |  | inconclusive: 21.2 µM [inhibitor, partial curve] |
| O=c1[nH][nH]c2c1[C@H](c1ccccc1)O[C@H](C1CCCCC1)C2 |  | active: 11.9 µM |
| CCCCn1c2ccccc2c2nnc(SCCN3CCCCC3)nc21 | inconclusive: -32% [inhibitor] |  |
| Cc1cc2oc(=O)sc2cc1NS(=O)(=O)c1ccccc1 |  | inconclusive: 26.7 µM [inhibitor, single point] |

Arranged by formula weight (rising): part of the list above.

| Compound | max response, negative = inhibition | Potency |
| --- | --- | --- |
| O=[N+]([O-])c1cc(CSC2=NCCN2)ccc1O |  | inconclusive: 21.2 µM [inhibitor, partial curve] |
| O=c1c2c3c(sc2[nH]c(=S)n1Cc1ccco1)CCC3 |  | inconclusive: 21.2 µM [inhibitor, partial curve] |
| COc1cc(/C=N/n2c(C)nc3ccccc3c2=O)ccc1O | inactive: 2.42% |  |
| Cc1cc2oc(=O)sc2cc1NS(=O)(=O)c1ccccc1 |  | inconclusive: 26.7 µM [inhibitor, single point] |
| O=C(COc1ccc(Cl)cc1)NNC(=O)c1ccccc1C(=O)O | inactive: 3.22% |  |
| CCCCn1c2ccccc2c2nnc(SCCN3CCCCC3)nc21 | inconclusive: -32% [inhibitor] |  |
| O=S(=O)(c1ccc(Cl)cc1)N1CCC(c2nc3ccccc3[nH]2)CC1 | inactive: -5.31% |  |
| FC(F)(F)c1cccc(Oc2cc(C(F)(F)F)nc(-c3ccccn3)n2)c1 | inactive: -4.42% |  |
| CCOC(=O)C(C)Oc1cccc2c(=O)n(CC(=O)NCc3ccccc3)ccc12 (configuration not stated) | inactive: -4.21% |  |
| Cc1cccc(C)c1Nc1nnc(SCC(=O)NCCCN2CCCC2=O)s1 | inconclusive: -33.5% [inhibitor] |  |
| CCO[C@@H]1OC(C(=O)NCc2ccccc2)=C[C@H](c2ccc3c(c2)OCO3)[C@H]1CCCO | inactive: -4.85% |  |
| Cc1cccc(NC(=O)CSCC(=O)N(CCC(C)C)c2c(N)n(Cc3ccccc3)c(=O)[nH]c2=O)c1 | inactive: 0.743% |  |
